The exact form of at least one protein or probe is not confirmed. Weaker means in comparison with the reference protein, sequence or condition of that experiment.
Tested on: IFI16 (Homo sapiens)
Test: HDX-MS
Details: PYRIN only, HIN domains unchanged; recombinant protein; protein details: N-terminal 6xHis; label: 3'-FAM (EMSA)

Chains of the proteins cited; added tags and fusions are not shown. A line that says so, or that is headed by a name, gives the form on record, which may keep a tag or linker.
IFI16 (Homo sapiens), one chain, as listed by the source: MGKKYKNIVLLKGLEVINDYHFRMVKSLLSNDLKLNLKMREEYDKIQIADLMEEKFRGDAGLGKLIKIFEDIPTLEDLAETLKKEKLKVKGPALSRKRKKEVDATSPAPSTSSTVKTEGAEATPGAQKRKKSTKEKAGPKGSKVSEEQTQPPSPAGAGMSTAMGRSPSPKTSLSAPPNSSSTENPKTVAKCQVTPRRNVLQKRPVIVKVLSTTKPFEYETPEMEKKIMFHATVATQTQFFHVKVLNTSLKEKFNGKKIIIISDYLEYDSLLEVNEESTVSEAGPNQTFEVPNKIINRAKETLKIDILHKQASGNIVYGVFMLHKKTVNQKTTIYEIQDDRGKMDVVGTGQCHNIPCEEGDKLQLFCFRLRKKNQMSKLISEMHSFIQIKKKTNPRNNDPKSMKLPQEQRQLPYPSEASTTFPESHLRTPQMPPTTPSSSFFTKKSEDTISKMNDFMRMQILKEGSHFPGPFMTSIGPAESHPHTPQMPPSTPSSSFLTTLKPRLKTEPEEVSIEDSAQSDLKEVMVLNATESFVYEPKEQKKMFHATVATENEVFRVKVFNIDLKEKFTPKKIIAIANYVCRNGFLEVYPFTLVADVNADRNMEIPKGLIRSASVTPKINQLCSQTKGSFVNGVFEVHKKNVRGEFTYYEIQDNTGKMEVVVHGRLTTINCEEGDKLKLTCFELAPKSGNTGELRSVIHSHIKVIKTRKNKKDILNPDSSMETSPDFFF

“TTGGGGCGCTTATGGGGAGGGTGGGGAGGGTGGGGAAGGTGGGGAGGAGACT (double strand) [DS NHEIII]”: binds more weakly.

Reference: paper PMC4900677
